Source: PMC3359988
These are yes or no findings as the source states them, for the method shown. Some binding calls cover weakened binding; strength is not graded here.

Molecular target: VpsT (Vibrio cholerae) (UniProt K7RXY0)
Test: two-hybrid

For VpsT (from UniProt K7RXY0 1-224), the binding was “binds”.
